Results from patent publication US20260201000A1.
These are yes or no findings as the source states them, for the method shown. Some binding calls cover weakened binding; strength is not graded here.

Protein sequences, listed by entry. Tags and fused reporters are not part of them. Lines headed by an entry give the natural chain unless they say otherwise; changes in a name come on top.
UniProt P01031: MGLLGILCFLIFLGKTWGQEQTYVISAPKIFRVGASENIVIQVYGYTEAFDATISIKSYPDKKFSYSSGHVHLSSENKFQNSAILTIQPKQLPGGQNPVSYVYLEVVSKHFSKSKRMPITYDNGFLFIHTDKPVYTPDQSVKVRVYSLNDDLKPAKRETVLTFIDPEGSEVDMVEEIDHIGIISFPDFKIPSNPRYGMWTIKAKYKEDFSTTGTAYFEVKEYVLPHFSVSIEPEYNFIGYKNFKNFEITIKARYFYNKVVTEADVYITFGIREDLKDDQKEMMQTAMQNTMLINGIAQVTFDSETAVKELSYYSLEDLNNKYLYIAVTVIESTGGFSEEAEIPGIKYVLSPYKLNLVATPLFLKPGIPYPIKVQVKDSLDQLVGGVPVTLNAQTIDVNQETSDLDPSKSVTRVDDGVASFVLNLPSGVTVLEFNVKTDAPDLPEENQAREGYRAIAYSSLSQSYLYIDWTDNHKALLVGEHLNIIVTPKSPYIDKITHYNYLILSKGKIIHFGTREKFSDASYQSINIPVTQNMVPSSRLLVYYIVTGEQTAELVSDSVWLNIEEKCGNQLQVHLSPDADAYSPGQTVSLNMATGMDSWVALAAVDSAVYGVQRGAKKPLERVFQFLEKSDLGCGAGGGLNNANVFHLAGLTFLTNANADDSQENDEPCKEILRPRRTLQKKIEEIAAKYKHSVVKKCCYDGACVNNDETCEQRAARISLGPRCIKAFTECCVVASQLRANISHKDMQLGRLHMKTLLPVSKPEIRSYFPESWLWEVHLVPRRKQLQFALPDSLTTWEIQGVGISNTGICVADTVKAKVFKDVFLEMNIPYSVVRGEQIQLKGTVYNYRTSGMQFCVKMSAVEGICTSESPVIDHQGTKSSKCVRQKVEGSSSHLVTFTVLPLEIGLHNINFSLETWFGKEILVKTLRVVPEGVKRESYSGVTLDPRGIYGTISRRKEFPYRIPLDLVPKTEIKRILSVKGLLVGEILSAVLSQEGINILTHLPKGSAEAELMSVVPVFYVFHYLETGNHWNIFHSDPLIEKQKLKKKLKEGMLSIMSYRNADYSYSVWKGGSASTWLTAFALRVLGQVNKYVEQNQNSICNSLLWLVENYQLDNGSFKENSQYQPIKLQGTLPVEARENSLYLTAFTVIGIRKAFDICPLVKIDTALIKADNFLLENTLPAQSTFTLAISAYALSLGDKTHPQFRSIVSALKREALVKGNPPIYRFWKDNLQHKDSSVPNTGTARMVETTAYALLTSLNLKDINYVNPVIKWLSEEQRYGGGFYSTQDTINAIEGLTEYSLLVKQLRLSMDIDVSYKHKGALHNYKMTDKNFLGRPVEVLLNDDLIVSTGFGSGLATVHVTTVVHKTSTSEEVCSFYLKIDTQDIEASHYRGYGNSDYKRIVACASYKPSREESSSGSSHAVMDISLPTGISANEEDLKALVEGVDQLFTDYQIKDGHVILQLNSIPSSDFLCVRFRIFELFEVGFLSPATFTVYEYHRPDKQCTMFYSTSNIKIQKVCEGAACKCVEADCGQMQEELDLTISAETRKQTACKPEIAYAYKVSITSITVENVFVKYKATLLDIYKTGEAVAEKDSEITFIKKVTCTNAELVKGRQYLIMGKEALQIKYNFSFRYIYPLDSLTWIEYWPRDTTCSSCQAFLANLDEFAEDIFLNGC

What was measured:
[1] = molecular target: complement C5 (C5 antigen, Complement Technology, A120) (human) (UniProt P01031); experiment: BLI (ForteBio Octet K2): antibody at 10 ug/mL loaded on anti-human IgG Fc sensor, C5 at 10 ug/mL, association 180 s, dissociation 500 s in pH7.4 or pH5.4 buffer
[2] = molecular target: complement C5 (C5 antigen, Complement Technology, A120) (human) (UniProt P01031); experiment: BLI (ForteBio Octet K2): antibody at 10 µg/mL loaded on anti-human IgG Fc sensor in neutral pH buffer, C5 antigen at 10 µg/mL, association 180 s, dissociation 500 s in pH7.4 buffer or pH5.4 buffer

B1: C5 antibody phAb (anti-human C5 antibody with pH-dependent dissociation properties) (antibody, human IgG4 S228P, kappa, V domains shown)
VH: QVQLVQSGAEVKKPGASVKVSCKASGYTFTNYGMNWVRQAPGQGLEWMGWINTYTGEPTYADDFKGRFTFTLDTSTSTAYLELSSLRSEDTAVYYCARTKVPHYFAYAMDYWGQGTLVTVSS
VL: DIVLTQSPSSLSASVGDRVTITCKASQSVDYHGDSYLNWYQQKPGKPPKLLIYAASNLESGIPSRFSGSGSGTDFTLTISSLQPEDFATYYCQQSNEDPSTFGGGTKLEIKR
**Q.** Which results are given for B1?
**A.** binding [1]: binds; binding [2]: binds
